# PubChem BioAssay AID652172 (National Center for Advancing Translational Sciences (NCATS), 2013)
# Protein sequences, listed by entry. Tags and fused reporters are not part of them. Lines headed by an entry give the natural chain unless they say otherwise; changes in a name come on top.
# UniProt O75604: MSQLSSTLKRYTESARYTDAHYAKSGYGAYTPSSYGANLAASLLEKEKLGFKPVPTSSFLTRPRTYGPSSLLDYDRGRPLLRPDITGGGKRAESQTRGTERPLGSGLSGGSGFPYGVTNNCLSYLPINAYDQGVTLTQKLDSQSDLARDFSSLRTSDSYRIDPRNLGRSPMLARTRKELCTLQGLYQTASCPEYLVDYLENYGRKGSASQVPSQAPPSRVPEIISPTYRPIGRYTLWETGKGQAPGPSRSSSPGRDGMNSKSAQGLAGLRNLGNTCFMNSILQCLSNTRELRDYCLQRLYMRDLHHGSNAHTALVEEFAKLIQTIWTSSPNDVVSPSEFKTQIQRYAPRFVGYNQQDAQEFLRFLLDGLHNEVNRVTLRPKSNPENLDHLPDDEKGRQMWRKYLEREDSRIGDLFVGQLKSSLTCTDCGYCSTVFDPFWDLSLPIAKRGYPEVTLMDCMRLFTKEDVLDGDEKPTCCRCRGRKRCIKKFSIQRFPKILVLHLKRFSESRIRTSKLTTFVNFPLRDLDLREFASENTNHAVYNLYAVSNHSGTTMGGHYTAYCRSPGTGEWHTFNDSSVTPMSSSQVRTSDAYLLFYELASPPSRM
# Inconclusive results, whose numbers are uncertain, are shown with a selection of clear calls. Potencies beside an inconclusive call are fits to weak or partial responses and may not hold up. Activity calls are given as the source filed them. Calls follow the shape of the dose curve; as a rule, active = well fitted inhibition curve with a large enough effect; inconclusive = small, poorly fitted or top-dose-only effect; inactive = flat fitted curve, though single readings scatter.
# Target: Ubiquitin carboxyl-terminal hydrolase 2 (Homo sapiens) (UniProt O75604)
# Assay: Confirmation Assay for Inhibitors of Ubiquitin-specific Protease USP2a Using CHOP2 as the Reporter: K633
# Settings: USP2 cleavage of DiUb K63-3IQF, fluorescence kinetic; series mostly up to 57.5 µM
# Source text: Homeostasis of cellular proteins is maintained through a combination of synthesis and degradation. The pathway that accounts for the majority of protein degradation is the ubiquitin-proteasomal pathway. Ubiquitin (Ub) is highly conserved in all cells and the generation of a multi-Ub chain typically targets proteins for degradation by the proteasome. However, ubiquitination is highly reversible and dynamic. Deubiquitination, the reverse process, is catalyzed through the action of enzymes referred to as isopeptidases or deubiquitinating enzymes (DUBs). This group of enzymes is collectively responsible for maintaining adequate pools of free ubiquitin and regulating the ubiquitination status of cellular proteins. The class of DUBs referred to as the ubiquitin-specific proteases (USP) family functions endoproteolytically to cleave Ub chains from a wide range of protein substrates. USP2a deubiquitinates fatty acid synthase (FASN) which has recently been identified as an emerging oncology target. To identify inhibitors of USP2a a cell-free assay was employed. Confirmed qHTS active compounds were tested in an orthogonal USP2 assays utilizing a di-ubiquitin substrate labeled with a quencher on one ubiquitin and a fluorescent compound on the other, i.e. the substrate has internally quenched fluorescence or IQF (Lifesensors). In the presence of active USP2, the diubiquitin (DiUb) is cleaved and the fluorescence at 598 nm increases. This assay is run in kinetic mode. Upon inhibition of USP2, the fluorescence signal from cleaved substrate increases less over time than in the absence of an inhibitor. This assay was also used during SAR. The buffer consisted of 20 mM Tris pH 8, 2 mM beta-mercaptoethanol and 0.05% Chaps, and the assay was run in black solid-bottom Greiner plates. NIH Molecular Libraries Probe Centers Network [MLPCN] NIH Chemical Genomics Center [NCGC] MLSCN Grant: MH079852 PI Name: Benjamin Nicholson, Progenra Inc, Malvern, PA
# 3 uL of 5 nM USP2 (or no enzyme) was dispensed in assay buffer was dispensed into a 1536-well plate and then compounds were added through pinning. […]
row,SMILES,Potency
1,Cc1ccc(S(=O)(=O)Nc2ccccc2C(=O)Nc2nccs2)cc1,"inconclusive: 21.7 µM [inhibitor, partial curve]"
2,Cc1ccc(-c2cc(C(=O)Nc3ccc(S(N)(=O)=O)cc3)c3cccc(C)c3n2)cc1C,active: 10.9 µM
3,CC(=O)Nc1ccc(S(=O)(=O)Nc2nccs2)cc1,inactive
